Among all 330,000 compounds or so, about 100 (0.03%) were called active. Inconclusive results, whose numbers are uncertain, are shown with a selection of clear calls. Calls come from the whole dose curve; as a rule, active = well fitted inhibition curve with a large enough effect; inconclusive = small, poorly fitted or top-dose-only effect; inactive = flat fitted curve, though single readings scatter. A potency beside an inconclusive call is a rough fit, not a confirmed value.
Each molecule was assayed on Chaperonin Mm-Cpn (Methanococcus maripaludis) (assay: Inhibitors of TCP-1 ring complex (TRiC) of Methanococcus maripaludis (MmCpn): qHTS). Settings: purified Mm-Cpn ATPase, ADP Transcreener TR-FRET; activity, negative = inhibition: at the top concentration.
Summary of the method: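 Inhibition of chaperonin ATP hydrolysis is measured as reduced ADP production, detected by competitive TR-FRET in which signal falls with ADP. Final enzyme 25 nM and ATP 10 uM, reacted 30 min at 37°C.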
% is set by controls: 0 for no effect and ±100 for the full control effect; potency is the fitted concentration of half-maximal effect.
Note: nearly all actives have a fitted effect of over 80% in size.
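Throughout, for potency: enzyme at 25 nM with ATP substrate at 10 µM during the reaction.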

Compound | Potency | activity, negative = inhibition
S=c1[nH]nc(-c2cccnc2)o1 | inconclusive: 15.8 µM [inhibitor, single point] | 
O=C(Nc1nc2ccsc2c(=O)s1)C1CCC1 | inconclusive: 17.8 µM [inhibitor, single point] | 
CC(=O)Nc1ccc(-c2nnn(CC(=O)Nc3ccc4c(c3)OCO4)n2)cc1Cl | inconclusive: 20 µM [inhibitor, single point] | 
N#CCCn1cc(C=C(C#N)C#N)c(-c2ccc(Cl)cc2)n1 | inconclusive: 50.1 µM [inhibitor, single point] | 
CCOc1ccc(NC(=O)CN2CCN(S(=O)(=O)c3ccc(Cl)cc3)CC2)cc1 | inconclusive: 15.8 µM [inhibitor, partial curve, poor fit] | 
Cc1ccc(CNc2oc(-c3ccco3)nc2C#N)cc1 |  | inactive: -5.14%
Cc1[nH]nc2ncc(C(=O)c3ccccc3O)cc12 | inconclusive: 178 µM [inhibitor, single point] | 
Cn1c2ccc(F)cc2c2nnc(NN)nc21 |  | inactive: -3.17%
CCn1cc(CN2CCN(Cc3ccsc3)C(CCO)C2)cn1 (centres undefined) |  | inactive: 0.703%
Cc1ccc(OCC(=O)Nc2cccc(S(=O)(=O)NC3=NCCCCC3)c2)cc1C |  | inactive: -1.92%
O=C(NCCc1ccccc1)C1CC1 | inconclusive: 63.1 µM [inhibitor, single point] | 
CCC(C)Oc1ccc(C(=O)Nc2ccc(CN3CCOCC3)cc2)cc1 (centres undefined) | inconclusive: 22.4 µM [inhibitor, single point] | 
O=C(CN1C(=O)c2ccccc2S1(=O)=O)NC1CCCCC1 | inconclusive: 20 µM [inhibitor, single point] | 
CC(=O)Nc1ccc(-c2cc(C(=O)O)c3ccccc3n2)cc1 |  | inactive: -0.884%
Cc1ccc(S(=O)(=O)N2CCOCC2)cc1NC(=O)COc1ccc(C(=O)c2ccccc2)cc1 | inconclusive: 100 µM [inhibitor, single point] | 
NC(=O)NC(=O)CSc1nc2sc(-c3ccccc3)cc2c(=O)n1-c1ccccc1 | inconclusive: 17.8 µM [inhibitor, single point] | 
Cc1ccc(CNC(=O)[C@H](C)NC(=O)C2CCN(C(=O)[C@@H]3CCCN3C(=O)OC(C)(C)C)CC2)cc1 | inconclusive: 100 µM [inhibitor, single point] | 
O=C(NC1CCCC1)C1CCN(C(=O)c2ccccc2Cl)CC1 | inconclusive: 22.4 µM [inhibitor, single point] | 
OC(C#CCN1CCCC1)c1ccccc1 (centres undefined) |  | inactive: 1.33%
O=C(CN1CCOCC1)NCc1cc([N+](=O)[O-])ccc1O |  | inactive: 0.705%
O=C(COC(=O)CCCc1c[nH]c2ccccc12)Nc1ccc2c(c1)OCO2 | inconclusive: 89.1 µM [inhibitor, single point] | 
Cc1c(Cl)cnc(NC(=O)COC(=O)c2nn(C)c(=O)c3ccccc23)c1Cl | inconclusive: 89.1 µM [inhibitor, single point] | 

Three structures already listed, arranged by count of non-hydrogen atoms, descending.
Compound | Potency | activity, negative = inhibition
CCOc1ccc(NC(=O)CN2CCN(S(=O)(=O)c3ccc(Cl)cc3)CC2)cc1 | inconclusive: 15.8 µM [inhibitor, partial curve, poor fit] | 
CCC(C)Oc1ccc(C(=O)Nc2ccc(CN3CCOCC3)cc2)cc1 (centres undefined) | inconclusive: 22.4 µM [inhibitor, single point] | 
O=C(NC1CCCC1)C1CCN(C(=O)c2ccccc2Cl)CC1 | inconclusive: 22.4 µM [inhibitor, single point] | 

More structures follow.

Compound | Potency | activity, negative = inhibition
O=C(NCCCN1CCCCC1)c1ccc2c(c1)NC(=O)c1ccccc1S2 | inconclusive: 100 µM [inhibitor, single point] | 
COc1ccc(CCNC(=O)CSc2ccc(-c3ccco3)nn2)cc1OC | inconclusive: 12.6 µM [inhibitor, single point] | 
CCN(CC)c1ccc(-c2nnc(SCC(=O)N(CCOC)c3c(N)n(CC(C)C)c(=O)[nH]c3=O)o2)cc1 |  | inactive: -3.28%
COc1ccccc1C1CCN(c2ccc(CO)cc2[N+](=O)[O-])CC1 |  | inactive: 0.201%
CC(=O)C1=C(O)C(=O)N(c2ccc(S(N)(=O)=O)cc2)C1c1cccc([N+](=O)[O-])c1 (centres undefined) | inconclusive: 100 µM [inhibitor, single point] | 
COCCCNC(=O)Cn1nc(-c2ccc(C)cc2)ccc1=O | inconclusive: 89.1 µM [inhibitor, single point] | 
COc1ccc2c(c1)[n+](=O)c(C(C)=O)c(C)n2[O-] |  | inactive: -6.1%
CCOC(=O)c1cnc(SSc2ncc(C(=O)OCC)c(N)n2)nc1N |  | inactive: 0.545%
Cn1c(=O)n(C)c2cc([N+](=O)[O-])c(N3CCN(C(=O)c4ccccc4Cl)CC3)cc21 | inconclusive: 100 µM [inhibitor, single point] | 
Cc1ccc(N(CC(=O)NCc2ccco2)C(=O)CCC(=O)Nc2nccs2)cc1 |  | inactive: 0.226%
NC(=NCCCCCCN=C(N)/N=C(\N)Nc1ccc(Cl)cc1)/N=C(\N)Nc1ccc(Cl)cc1 | inconclusive: 89.1 µM [inhibitor, single point] | 
CCCCN(C(=O)NC(=O)Nc1nc2ccc(OC)cc2s1)S(C)(=O)=O |  | inactive: -1.14%
Cn1c(N)cc(-c2ccc(F)cc2)c(C#N)c1=O | inconclusive: 15.8 µM [inhibitor, single point] | 
CN(C)S(=O)(=O)c1ccc(Cl)c(NC(=O)COC(=O)c2cc(-c3ccccc3)nc3ccccc23)c1 | inconclusive: 3550 µM [inhibitor, partial curve, poor fit] | 
CCc1nnc(NC(=O)C2CCN(c3ncnc4sc(C)c(C)c34)CC2)s1 | inconclusive: 89.1 µM [inhibitor, single point] | 
Cc1cc2ncn(C3CC(=O)N(C)C3=O)c2cc1C (centres undefined) | inconclusive: 17.8 µM [inhibitor, single point] | 
CN(C)c1ccc(/C=C/c2ccc3c4ccccc4ccc3[n+]2-c2ccccc2)cc1 | inconclusive: 158 µM [inhibitor, partial curve, poor fit] | 
N#Cc1cc(Oc2cccc3cccnc23)c(-n2nnc3ccccc32)cc1C#N | inconclusive: 100 µM [inhibitor, single point] | 
COC(=O)c1[nH]c2ccccc2c1Sc1ccccc1 | inconclusive: 224 µM [inhibitor, partial curve, poor fit] | 
CCC(=O)N1CC2(CC(c3cccc(NC(=O)COc4ccc(Cl)cc4)c3)=NO2)C[C@@H]1C(N)=O (some centres undefined) | inconclusive: 15.8 µM [inhibitor, single point] | 
CC(C)=CCN1CCN(Cc2cccn2-c2ccccn2)CC1CCO (centres undefined) | inconclusive: 100 µM [inhibitor, partial curve, poor fit] | 
CCCC(=O)Nc1ccc(C(=O)COC(=O)c2cc(C)oc2C)cc1 | inconclusive: 100 µM [inhibitor, single point] | 
